Data as given in PubChem BioAssay AID686937 (Drosophila RNAi Screening Center, 2013).
Assay: 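Genes whose loss weakens secretory pathway function in fly cells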 (primary screen). Cells: Drosophila S2 cells expressing secreted horseradish peroxidase. Knock-down reagent: long dsRNA against Drosophila genes. Timing: about 5.5 days (5 days dsRNA, then 12 h reporter induction). Challenge: reporter expression induced after 5 days of dsRNA, read 12 h later; inducer not stated. Detection: 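After 5 days of dsRNA and 12 h of reporter induction, medium peroxidase read by chemiluminescence and scored as per-plate z-score; higher values mean more reporter released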. Scale: z-score: higher = more reporter secreted into medium.
The deposit covers about 23,000 reagents; below is a random part of those that have a named target and a result. 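Reduced-secretion tags in replicate 1 do not always agree with the z-scores; no criterion for assigning the tags was given.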 A plus sign joins genes that one reagent is predicted to hit. Not all columns of the deposit are shown. The record does not give: the amount of reagent.

no.	gene	amplicon	z-score, replicate 1	z-score, replicate 2	z-score, replicate 3
1	PpD3	DRSC16796	0.23	0.33	
2	CG3610	DRSC15502	0.55	0.6	
3	pkaap	DRSC01925	0	0.1	
4	CG17801	DRSC15273	0.45	-0.24	
5	Cdk1	DRSC03504	-2.48	-1.88	
6	CG9004	DRSC08617	0.14	0.27	
7	BORCS5	DRSC19427	0.39	0.37	
8	CG32579	DRSC19872	0.54	0.65	
9	Kebab	DRSC00827	0.25	0.37	
10	I-t	DRSC16713	0.05	-0.33	
11	RhoGAPp190	DRSC20097	0.72	0.73	
12	RhoGAPp190	DRSC20099	0.2	0.3	
13	CG14137	DRSC10142	0.47	0.39	
14	HemK2 + Snapin	DRSC00736	0.34	0.35	
15	HemK2 + Snapin	DRSC00737	0.24	0.11	
16	CG34338	DRSC17535	0.17	0.37	
17	CG17191	DRSC15185	0.3	0.22	
18	Gr22f	DRSC00076	0.18	0.2	
19	Ziz	DRSC02506	0.16	0.19	
20	Ziz	DRSC02976	0.13	0.29	
21	Cyp9f2	DRSC16635	0.12	-0.02	
22	Vajk3	DRSC01883	0.04	0.05	
23	CG3402	DRSC08567	0.22	0.06	
24	Ip6k	DRSC04054	-0.18	0.33	
25	SCAP	DRSC04869	0.09	0.2	
26	SCAP	DRSC04907	-2.7	-2.33	
27	Spn42Dd	DRSC05024	0.38	0.21	
28	Spn42Dd	DRSC22060	0.78	0.02	
29	CG45067	DRSC08414	0.24	0.37	
30	CG3634	DRSC11747	0.27	0.11	
31	CG15472	DRSC18055	0.41	0.48	
32	CG15484	DRSC02494	0.08	0.27	0.29
33	CG15484	DRSC22836	0.35	0.29	
34	Nepl17	DRSC14880	-0.06	0.36	
35	xmas-1 (retired record)	DRSC20386	0.04	0.32	
36	U2af38	DRSC00796	-0.64	-0.76	
37	Kdm3	DRSC16393	0.1	0	
38	sd	DRSC20370	0.17	0.14	
39	sd	DRSC21712	0.3	0.7	
40	MED21	DRSC20932	0.5	-0.3	
41	CG11382	DRSC18624	0.32	0.23	

Continued; the last 9 above are carried over.
no.	gene	amplicon	z-score, replicate 1	z-score, replicate 2	z-score, replicate 3
33	CG15484	DRSC22836	0.35	0.29	
34	Nepl17	DRSC14880	-0.06	0.36	
35	xmas-1 (retired record)	DRSC20386	0.04	0.32	
36	U2af38	DRSC00796	-0.64	-0.76	
37	Kdm3	DRSC16393	0.1	0	
38	sd	DRSC20370	0.17	0.14	
39	sd	DRSC21712	0.3	0.7	
40	MED21	DRSC20932	0.5	-0.3	
41	CG11382	DRSC18624	0.32	0.23	
42	Magi	DRSC04247	0.28	0.3	
43	Magi	DRSC04451	0.36	0.1	
44	Polr2E	DRSC06100	-4.23	-4.9	
45	Ugt37B1	DRSC03225	-0.04	0.2	
46	l(1)G0469	DRSC19412	0.51	0.61	
47	l(1)G0469	DRSC19462	0.13	0.2	
48	sds22	DRSC17052	0.01	0.47	
49	BaraC	DRSC03885	-0.7	-0.33	
50	tefu	DRSC16060	0.09	0.47	
51	so	DRSC07693	0.32	-0.16	0.39
52	CG7164	DRSC03018	0.66	0.48	
53	CG13454	DRSC10001	0.67	0.7	
54	CG42557 + CG42558	DRSC13963	0.41	0.23	
55	CG42557 + CG42558	DRSC16329	0.24	0.15	
56	Oatp58Db	DRSC04364	0.16	0.13	
57	aay	DRSC11320	-0.16	0.11	
58	CG15111	DRSC21467	1.15	1.24	
59	RpLP2	DRSC07539	-5.25	-1.84	
60	LysD + LysB + LysC (retired record)	DRSC21249	0.49	0.27	
61	Hpd	DRSC11670	0.19	0.3	
62	disp	DRSC12376	0.08	0.21	
63	X11L	DRSC19958	0.23	0.49	0.69
64	X11L	DRSC19959	0.42	0.64	
65	Tsp26A	DRSC03135	0.13	0.2	
66	CG7382	DRSC03052	0.01	0.12	
67	CG42826	DRSC10682	0.26	0.14	
68	RpL11	DRSC07537	0.29	0.4	
69	CG30287	DRSC03875	-0.03	0.24	
70	CG43132 (retired record)	DRSC19484	0.2	0.52	
71	PolZ1	DRSC06800	0.28	0.1	
72	CG18622	DRSC15360	-0.2	-0.06	
73	CG14332	DRSC14811	0.37	0.56	
74	Ir94a	DRSC13538	-0.91	-0.04	
75	Jon99Cii	DRSC16858	0.16	0.03	
76	Jon99Cii	DRSC22574	-0.55	0.16	
77	CG7248	DRSC10788	0.35	0.23	
78	Jra	DRSC07447	0.87	0.62	
79	CG33307	DRSC01349	-0.51	-0.09	
80	CG6071	DRSC10579	0.31	0.17	
81	RhoGEF2	DRSC07531	-0.02	0.09	
82	Mco3	DRSC15926	0.31	0.29	
83	robls54B	DRSC05660	0.14	0.4	
84	CG43193 (retired record)	DRSC20426	0.24	-2.66	
85	Paip1	DRSC07302	-0.34	-0.17	
86	CG17242	DRSC00493	0.28	0.35	
87	Tgt	DRSC00672	0.41	0.27	
88	CG32450	DRSC11546	0.49	0.15	
89	sosie	DRSC14636	0.26	0.18	
90	sosie	DRSC21382	0.33	-0.15	
91	loh	DRSC01122	0.42	0.46	
92	loh	DRSC02943	-0.4	0.14	
93	NdufV3	DRSC19423	0.29	0.52	
94	CG15651	DRSC04242	0.05	0.21	
95	RanGAP	DRSC22003	0.38	-0.04	
96	Gad1	DRSC08661	-0.2	-0.01	
97	sob	DRSC00838	0.16	0.24	
98	GluRIIE	DRSC13431	-0.17	0.33	
99	Lip4	DRSC02930	-0.2	-0.22	
100	CG31436	DRSC14661	0.23	0.25	
101	Phb2	DRSC06512	-3.28	0.6	
102	CG17806	DRSC15276	0.28	0.3	
103	ThrRS	DRSC02843	-0.03	0.07	
104	Spt6	DRSC18836	-4.37	-3.6	
